# Results taken from the supplement of paper PMC9254222.
# The full ranking holds about 1,100 compounds; the median of “Wnt reporter firefly/Renilla luciferase ratio relative to plate median” is about 1.1, and the highest 2% start at about 1.6. This is a selection; strong and weak results do not stand in their true shares.
# Tested on: HEK293T (UBE3A T485A transfected, BAR Wnt reporter)
# Assay: Wnt reporter firefly/Renilla luciferase ratio relative to plate median (fold (linear ratio)); higher = more Wnt/beta-catenin reporter activation
# Settings: 24 h
# Procedure, shortened: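 Using Fugene 6, HEK293T cells in white 384-well plates (4500 cells/well; DMEM, 10% FBS, 37°C, 5% CO2) were transfected with a BAR firefly luciferase Wnt reporter, TK-Renilla and an expression plasmid. After four hours, robots dosed the chemicals at 0.01–100 uM, and a Dual-Glo luciferase readout followed 24 h later. Per-plate median-centred firefly/Renilla ratios gave Wnt activity, while per-plate median-centred raw Renilla signals gave cell health. Four biological replicates were averaged.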
Compound,Wnt reporter firefly/Renilla luciferase ratio (concentration: 0.1 uM),Wnt reporter firefly/Renilla luciferase ratio (concentration: 1 uM),Wnt reporter firefly/Renilla luciferase ratio (concentration: 10 uM),Wnt reporter firefly/Renilla luciferase ratio (concentration: 100 uM),Wnt reporter firefly/Renilla luciferase ratio (concentration: 0.01 uM)
"N[C@@H](Cc1cc(I)c(Oc2ccc(O)c(I)c2)c(I)c1)C(=O)O [3,5,3'-Triiodothyronine]",1.17,1.11,1.03,0.213,–
N#C[C@@H]1CC(F)(F)CN1C(=O)CNC1CC2CCC(C1)N2c1ncccn1 (stereo partly drawn),0.985,0.923,0.937,0.82,–
"C=CCc1cc(S(=O)(=O)c2ccc(O)c(CC=C)c2)ccc1O [4,4'-Sulfonylbis[2-(prop-2-en-1-yl)phenol]]",0.923,0.862,0.653,–,–
c1ccc2c(c1)ccc1ccccc12 [Phenanthrene],0.724,0.903,1.02,0.9,–
O=C1O[C@H]([C@H](O)CO)C([O-])=C1O.[Na+] [Sodium erythorbate (1:1)],1.15,0.879,1.09,1.2,–
O=C1CCCCCN1 [Caprolactam],1.06,1.09,1.04,0.937,–
CCCC(=O)O [Butanoic acid],–,–,–,1.62,–
CCCCCCCCCCCCCCCCCC(=O)O [Octadecanoic acid],1.04,0.891,1.03,1.23,–
CCCCCCOC(=O)C1(O)CC2OC1(C)n1c3ccccc3c3c4c(c5c6ccccc6n2c5c31)C(=O)NC4 (stereo not drawn),1.43,0.996,1.15,0.584,1.55
O=C([O-])c1ccc2c(c1)nc(C(=O)NC1CCN(C3CC3)CC1)n2Cc1cc(-c2ccc(Cl)s2)on1.[Na+],0.874,1.09,0.986,1.08,–
O=C(O)c1cccc(N(Cc2cccnc2)c2ccc(OC(F)F)c(OC(F)F)c2)c1,0.79,0.645,0.499,0.103,–
CC1(C)CC(N=C=O)CC(C)(CN=C=O)C1 (stereo not drawn) [Isophorone diisocyanate],1.08,1.11,1.02,0.933,–
Oc1cccc(O)c1 [Resorcinol],1.09,1.23,1.13,1.34,–
C1CCC(SSC2CCCCC2)CC1 [Dicyclohexyl disulfide],0.41,0.847,0.589,0.879,–
COc1ccc(-c2ccc(=N)n(CCCC(=O)O)n2)cc1,0.879,1.04,0.861,1.43,0.802
CCC(C)(C)C1CCC(O)CC1 (stereo not drawn) [4-(2-Methylbutan-2-yl)cyclohexanol],1.08,1.21,0.956,0.821,–
CC1=CC(=O)/C(=C(/C)[O-])C(=O)O1.[Na+] [Sodium dehydroacetate],0.92,0.935,1.12,1.05,–
NS(=O)(=O)c1cc2c(cc1Cl)NCNS2(=O)=O [Hydrochlorothiazide],1.41,1.17,1.12,1.32,–
Cc1ncc([C@@H](CCCCCCc2ccc3c(n2)NCCC3)CC(=O)O)cn1,1.25,1.42,1.78,1.55,–
CCC(=C(c1ccc(O)cc1)c1ccc(OCCN(C)C)cc1)c1ccccc1 [4-Hydroxytamoxifen],1.36,1.16,0.795,–,–
Oc1ccccc1 [Phenol],0.93,1.28,1.19,1.35,–

Compound,Wnt reporter firefly/Renilla luciferase ratio (concentration: 0.1 uM),Wnt reporter firefly/Renilla luciferase ratio (concentration: 1 uM),Wnt reporter firefly/Renilla luciferase ratio (concentration: 10 uM),Wnt reporter firefly/Renilla luciferase ratio (concentration: 100 uM),Wnt reporter firefly/Renilla luciferase ratio (concentration: 0.01 uM)
CCSC(=O)N(CC(C)C)CC(C)C [Butylate],–,–,1.71,–,–
CS(=O)(=O)c1ccc([C@@H](C[C@H]2CCC(=O)C2)C(=O)Nc2cnccn2)cc1Cl [Piragliatin],1.03,0.959,1.02,1.3,–
c1ccc2c(c1)Cc1ccccc1-2 [Fluorene],1.18,1.07,1.28,1.41,–
Cc1oc(-c2ccccc2)nc1CCOc1cccc2c1ccn2CCC(=O)O,1.12,1.17,1.05,0.757,–
CCCCCCCCCCCC(=O)OC [Methyl dodecanoate],1.12,1.02,1.13,1.38,–
Fc1ccccc1[C@@H](F)CO[C@H]1CC[C@H](Nc2[nH]cnc3nncc2-3)CC1,1.04,1.08,0.826,0.32,–
CCCCc1oc2ccccc2c1C(=O)c1cc(I)c(OCCN(CC)CC)c(I)c1.Cl [Amiodarone hydrochloride],1.18,1.09,1,1.11,–
CC(C)CCO [Isopentyl alcohol],1.15,0.978,1.1,1.03,–
"CC(C)CCCCCCOC(=O)CCCCC(=O)OCCCCCCC(C)C [Hexanedioic acid, diisononyl ester]",0.869,0.964,1.24,1.25,–
O=C([N-]S(=O)(=O)/C=C/c1ccccc1)c1ccc(F)cc1Cl.[Na+],1.15,1.07,0.657,0.3,–
Cc1ccc(Cl)cc1 [4-Chlorotoluene],1.3,0.871,1.02,0.878,–
CC[C@H](NC(=O)c1cc(F)ccc1[N-]S(=O)(=O)c1cccc2cccnc12)c1ccccc1.[Na+],1.22,1.08,1.18,0.234,–
C[C@]12CC[C@@H]3c4ccc(O)cc4CC[C@H]3[C@@H]1CC[C@H]2O [17alpha-Estradiol],0.699,1.04,0.715,–,–
c1ccc(Nc2ccccc2)cc1 [Diphenylamine],1.08,1.19,1.18,1.24,1.05
C[C@]12C[C@H](O)[C@H]3[C@@H](CCC4=CC(=O)CC[C@@]43C)[C@@H]1CC[C@@H]2C(=O)CO [Corticosterone],1.12,1.15,1.13,0.318,–
[Cl-].[Li+],0.845,0.926,0.875,1.27,0.768
CC(=O)OC[C@H]1O[C@@](COC(C)=O)(O[C@H]2O[C@H](COC(C)=O)[C@@H](OC(C)=O)[C@H](OC(C)=O)[C@H]2OC(C)=O)[C@@H](OC(C)=O)[C@@H]1OC(C)=O [Sucrose octaacetate],1.11,1,1.08,1.08,–
CN(Cc1cnc2nc(N)nc(N)c2n1)c1ccc(C(=O)N[C@@H](CCC(=O)O)C(=O)O)cc1 [Methotrexate],0.309,–,0.383,0.459,–
CC(C)c1cccc(C(C)C)c1N1C(=O)c2ccc(O)cc2C1=O,1.19,1.17,0.259,–,–
CN1CCC(c2c(O)cc(O)c3c(=O)cc(-c4ccccc4Cl)oc23)C(O)C1 (stereo not drawn) [Flavopiridol],2,–,–,–,1.17
CC1(C)NC(=O)N(c2ccc([N+](=O)[O-])c(C(F)(F)F)c2)C1=O [Nilutamide],1.2,1,0.785,0.403,–

# Sorted by molar mass (falling): some entries from above
Compound,Wnt reporter firefly/Renilla luciferase ratio (concentration: 0.1 uM),Wnt reporter firefly/Renilla luciferase ratio (concentration: 1 uM),Wnt reporter firefly/Renilla luciferase ratio (concentration: 10 uM),Wnt reporter firefly/Renilla luciferase ratio (concentration: 100 uM),Wnt reporter firefly/Renilla luciferase ratio (concentration: 0.01 uM)
CN1CCC(c2c(O)cc(O)c3c(=O)cc(-c4ccccc4Cl)oc23)C(O)C1 (stereo not drawn) [Flavopiridol],2,–,–,–,1.17
Fc1ccccc1[C@@H](F)CO[C@H]1CC[C@H](Nc2[nH]cnc3nncc2-3)CC1,1.04,1.08,0.826,0.32,–
C[C@]12C[C@H](O)[C@H]3[C@@H](CCC4=CC(=O)CC[C@@]43C)[C@@H]1CC[C@@H]2C(=O)CO [Corticosterone],1.12,1.15,1.13,0.318,–

# Further results.

Compound,Wnt reporter firefly/Renilla luciferase ratio (concentration: 0.1 uM),Wnt reporter firefly/Renilla luciferase ratio (concentration: 1 uM),Wnt reporter firefly/Renilla luciferase ratio (concentration: 10 uM),Wnt reporter firefly/Renilla luciferase ratio (concentration: 100 uM),Wnt reporter firefly/Renilla luciferase ratio (concentration: 0.01 uM)
COc1cc2c3c(n(CCCn4ccnc4)c(=O)c2cc1OC)-c1cc2c(cc1C3=O)OCO2.Cl,0.457,0.72,0.631,0.938,1.15
O=C(O)c1ccccc1C(c1ccc(O)cc1)c1ccc(O)cc1 [Phenolphthalin],0.794,0.751,1.06,1.6,–
CC(C)c1nnc2ccc(-c3ocnc3-c3cc(F)ccc3F)cn12,0.481,0.606,0.539,0.17,–
CN1CCN(c2ccccc2/C=C2\SCCN(c3ccc(Cl)c(Cl)c3)C2=O)CC1 [Elzasonan],1.18,1.03,1.16,–,–
COC(=O)C12CCC(C)(C)CC1C1C(=O)C=C3C4(C)C=C(C#N)C(=O)C(C)(C)C4CCC3(C)C1(C)CC2 (stereo not drawn) [Bardoxalone-methyl],0.945,0.246,–,–,1.25
Cc1cc(C=C2SC(=O)N(c3ccccc3)C2=O)c(C)n1-c1cccnc1,0.482,0.538,0.389,0.221,–
Nc1ncn([C@@H]2O[C@H](CO)[C@@H](O)[C@H]2O)c(=O)n1 [5-azacytidine],–,–,–,2.42,–
[Cl-].c1ccc(C[n+]2cccc3ccccc32)cc1 [1-Benzylquinolinium chloride],0.993,0.903,1.05,–,–
CCCCOCCOCCO [2-(2-Butoxyethoxy)ethanol],0.859,0.98,0.872,0.969,–
Cc1cc(=O)[nH]c(=S)[nH]1 [6-Methyl-2-thiouracil],1.07,1.13,1.33,1.37,–
O=c1c(O)c(-c2ccc(O)c(O)c2)oc2cc(O)cc(O)c12 [Quercetin],1.1,1.09,1.38,–,–
CCC(C)c1ccccc1O (stereo not drawn) [2-(Butan-2-yl)phenol],1.19,0.977,0.947,1.14,–
CN(C)C(=O)C1(N2CCCCC2)CCN(CC[C@@]2(c3ccc(Cl)c(Cl)c3)CN(C(=O)c3ccccc3)CCO2)CC1,0.929,1.05,0.811,–,–
CCCCC=O [Pentanal],1.21,1.06,1.22,1.4,–
CCCCCCCCCCCCc1ccccc1 [Dodecylbenzene],1.06,1.03,1.08,0.984,–
COC(=O)c1c(Cl)c(Cl)c(C(=O)OC)c(Cl)c1Cl [Chlorthal-dimethyl],1.06,0.924,0.94,0.903,–
"CC1(C)C(=O)N(Cl)C(=O)N1Cl [1,3-Dichloro-5,5-dimethylhydantoin]",–,–,–,1.63,–
O=C(c1ccccc1)C1CCCCC1 [Cyclohexylphenylketone],1.08,0.971,1.24,1.51,–
CN1CCC[C@H]1c1cccnc1 [Nicotine],1.15,1.19,1.12,1.18,–
CCCCN1C(=O)[C@@H]([C@H](O)C2CCCCC2)NC(=O)C12CCN(Cc1ccc(Oc3ccc(C(=O)O)cc3)cc1)CC2.Cl [Aplaviroc hydrochloride],1.15,1.26,1.03,1.09,–
O=C(O)CC(O)C(=O)O (stereo not drawn) [Malic acid],0.767,0.818,0.707,0.783,–
